# Measured values published in the supplement of paper PMC11438910.
# The list shows a part of the results. The signal is at background level for most entries.
# B1: 4-127.3 (protein)
# chain 1: QVQLQESGPGLVKPSETLSLTCAVSGYSISSGYGWSWIRQPPGKGLEWIGYIGGSSGSTNYNPSLKSRVTVSKDTSKNQFSLKLSSVTAADTAVYYCARADYCTSTTCYGPNRFDVWGPGVLVTVSS
# chain 2: QAAPTQSPSVSGSAGQSVTISCTGSSSDIGYYNGVSWYQHHPGKAPKLMIYEVSKRPSGVSNRFSGSKSGNTASLTISGLQAADEADYFCSSYAGSGTYIFGAGTRLTVL
# Key:
# Assay in all cases: fluorescence intensity of antibody binding to polysaccharide-coupled beads; higher = stronger binding
# [1] = target: pneumococcal polysaccharide Pn18B
# Description: (§1)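 Recombinant rhesus-murine chimeric IgG1 antibodies were tested against antigen-coupled MagPlex beads in a 96-plex Luminex direct immunoassay (dLIA). The beads carried pneumococcal capsular polysaccharides of 93 serotypes plus C-polysaccharides. Antibody was added at 0.1–12,500 ng/mL for 1 h, then PE anti-mouse IgG, and net MFI was read on a Bio-Plex 3D. Only the rhesus variable regions are printed; constant regions are murine IgG1/kappa/lambda, and the signal peptide is MGWSCIILFLVATATGVHS.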
# [2] = target: pneumococcal polysaccharide Pn18C
# Description: as §1
# [3] = target: pneumococcal polysaccharide Pn18F
# Description: as §1
# [4] = target: pneumococcal polysaccharide Pn19A
# Description: as §1
# [5] = target: pneumococcal polysaccharide Pn19B
# Description: as §1
# [6] = target: pneumococcal polysaccharide Pn19C
# Description: as §1
# [7] = target: pneumococcal polysaccharide Pn19F
# Description: as §1
# [8] = target: pneumococcal polysaccharide Pn2
# Description: as §1
# [9] = target: pneumococcal polysaccharide Pn20A
# Description: as §1
# [10] = target: pneumococcal polysaccharide Pn20B
# Description: as §1
# [11] = target: pneumococcal polysaccharide Pn21
# Description: as §1
# [12] = target: pneumococcal polysaccharide Pn22A
# Description: as §1
# [13] = antibody concentration 2.8593 ng/mL
# [14] = antibody concentration 15.2894 ng/mL
# [15] = antibody concentration 81.7561 ng/mL
# [16] = antibody concentration 437.17 ng/mL
# [17] = antibody concentration 2337.65 ng/mL
# [18] = antibody concentration 12500 ng/mL
# [19] = antibody concentration 0.1 ng/mL
# [20] = antibody concentration 0.534724 ng/mL
binder,measurement,setting,value
B1,fluorescence intensity,[1]; [13],31.2 MFI
same,fluorescence intensity,[1]; [14],32 MFI
same,fluorescence intensity,[1]; [15],30.5 MFI
same,fluorescence intensity,[1]; [16],32.5 MFI
same,fluorescence intensity,[1]; [17],34.5 MFI
same,fluorescence intensity,[1]; [18],41.2 MFI
same,fluorescence intensity,[2]; [19],19.2 MFI
same,fluorescence intensity,[2]; [20],20 MFI
same,fluorescence intensity,[2]; [13],19.5 MFI
same,fluorescence intensity,[2]; [14],19 MFI
same,fluorescence intensity,[2]; [15],21 MFI
same,fluorescence intensity,[2]; [16],21.5 MFI
same,fluorescence intensity,[2]; [17],23.5 MFI
same,fluorescence intensity,[2]; [18],33.5 MFI
same,fluorescence intensity,[3]; [19],22 MFI
same,fluorescence intensity,[3]; [20],24.8 MFI
same,fluorescence intensity,[3]; [13],23.5 MFI
same,fluorescence intensity,[3]; [14],24.5 MFI
same,fluorescence intensity,[3]; [15],24.5 MFI
same,fluorescence intensity,[3]; [16],26 MFI
same,fluorescence intensity,[3]; [17],29.2 MFI
same,fluorescence intensity,[3]; [18],35 MFI
same,fluorescence intensity,[4]; [19],19.5 MFI
same,fluorescence intensity,[4]; [20],18.8 MFI
same,fluorescence intensity,[4]; [13],17.8 MFI
same,fluorescence intensity,[4]; [14],17.5 MFI
same,fluorescence intensity,[4]; [15],18.5 MFI
same,fluorescence intensity,[4]; [16],19.8 MFI
same,fluorescence intensity,[4]; [17],20.5 MFI
same,fluorescence intensity,[4]; [18],30 MFI
same,fluorescence intensity,[5]; [19],33.5 MFI
same,fluorescence intensity,[5]; [20],28 MFI
same,fluorescence intensity,[5]; [13],29.5 MFI
same,fluorescence intensity,[5]; [14],28.2 MFI
same,fluorescence intensity,[5]; [15],30 MFI
same,fluorescence intensity,[5]; [16],30 MFI
same,fluorescence intensity,[5]; [17],36.5 MFI
same,fluorescence intensity,[5]; [18],103 MFI
same,fluorescence intensity,[6]; [19],28.2 MFI
same,fluorescence intensity,[6]; [20],26.8 MFI
same,fluorescence intensity,[6]; [13],25.8 MFI
same,fluorescence intensity,[6]; [14],25.2 MFI
same,fluorescence intensity,[6]; [15],25.5 MFI
same,fluorescence intensity,[6]; [16],25.5 MFI
same,fluorescence intensity,[6]; [17],30.5 MFI
same,fluorescence intensity,[6]; [18],65.8 MFI
same,fluorescence intensity,[7]; [19],27 MFI
same,fluorescence intensity,[7]; [20],25.5 MFI
same,fluorescence intensity,[7]; [13],26.5 MFI
same,fluorescence intensity,[7]; [14],27.5 MFI
same,fluorescence intensity,[7]; [15],27 MFI
same,fluorescence intensity,[7]; [16],27 MFI
same,fluorescence intensity,[7]; [17],31 MFI
same,fluorescence intensity,[7]; [18],46.5 MFI
same,fluorescence intensity,[8]; [19],20.2 MFI
same,fluorescence intensity,[8]; [20],20.5 MFI
same,fluorescence intensity,[8]; [13],19.5 MFI
same,fluorescence intensity,[8]; [14],21 MFI
same,fluorescence intensity,[8]; [15],20 MFI
same,fluorescence intensity,[8]; [16],21 MFI
same,fluorescence intensity,[8]; [17],22.5 MFI
same,fluorescence intensity,[8]; [18],29 MFI
same,fluorescence intensity,[9]; [19],24.5 MFI
same,fluorescence intensity,[9]; [20],23.5 MFI
same,fluorescence intensity,[9]; [13],22.8 MFI
same,fluorescence intensity,[9]; [14],22.8 MFI
same,fluorescence intensity,[9]; [15],23.8 MFI
same,fluorescence intensity,[9]; [16],22.8 MFI
same,fluorescence intensity,[9]; [17],27.2 MFI
same,fluorescence intensity,[9]; [18],69.2 MFI
same,fluorescence intensity,[10]; [19],24 MFI
same,fluorescence intensity,[10]; [20],24 MFI
same,fluorescence intensity,[10]; [13],25.2 MFI
same,fluorescence intensity,[10]; [14],25.5 MFI
same,fluorescence intensity,[10]; [15],23.5 MFI
same,fluorescence intensity,[10]; [16],23.5 MFI
same,fluorescence intensity,[10]; [17],25.5 MFI
same,fluorescence intensity,[10]; [18],34 MFI
same,fluorescence intensity,[11]; [19],20.5 MFI
same,fluorescence intensity,[11]; [20],19.5 MFI
same,fluorescence intensity,[11]; [13],19.8 MFI
same,fluorescence intensity,[11]; [14],21.2 MFI
same,fluorescence intensity,[11]; [15],20.5 MFI
same,fluorescence intensity,[11]; [16],20 MFI
same,fluorescence intensity,[11]; [17],20.2 MFI
same,fluorescence intensity,[11]; [18],25.5 MFI
same,fluorescence intensity,[12]; [19],22 MFI
same,fluorescence intensity,[12]; [20],21 MFI
same,fluorescence intensity,[12]; [13],22.5 MFI
same,fluorescence intensity,[12]; [14],21.5 MFI

# A stretch from further up:
binder,measurement,setting,value
B1,fluorescence intensity,[4]; [15],18.5 MFI
same,fluorescence intensity,[4]; [16],19.8 MFI
same,fluorescence intensity,[4]; [17],20.5 MFI
same,fluorescence intensity,[4]; [18],30 MFI

# Some of the entries so far, tab-delimited:
binder	measurement	setting	value
B1	fluorescence intensity	[2]; [14]	19 MFI
same	fluorescence intensity	[2]; [15]	21 MFI
same	fluorescence intensity	[2]; [16]	21.5 MFI
